Test results from PMC5035054.
No constants are given. Whether binding was seen depends on the method and setting. In cells and extracts the contact can be indirect. These calls come from enrichment with a bait or labelling near it, and not all partners need be listed. Tags and fused reporters may be left off the sequences shown.

By UniProt entry, the sequences of proteins in these tests, tags left out.
UniProt P08579: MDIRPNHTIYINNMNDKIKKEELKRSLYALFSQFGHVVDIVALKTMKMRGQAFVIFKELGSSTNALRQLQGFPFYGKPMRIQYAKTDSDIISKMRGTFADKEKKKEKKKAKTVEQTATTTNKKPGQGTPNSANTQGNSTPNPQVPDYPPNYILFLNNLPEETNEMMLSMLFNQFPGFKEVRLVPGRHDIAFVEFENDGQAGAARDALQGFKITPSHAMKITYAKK

B1: RB1 (protein, UniProt P06400 1-928)
chain: MPPKTPRKTAATAAAAAAEPPAPPPPPPPEEDPEQDSGPEDLPLVRLEFEETEEPDFTALCQKLKIPDHVRERAWLTWEKVSSVDGVLGGYIQKKKELWGICIFIAAVDLDEMSFTFTELQKNIEISVHKFFNLLKEIDTSTKVDNAMSRLLKKYDVLFALFSKLERTCELIYLTQPSSSISTEINSALVLKVSWITFLLAKGEVLQMEDDLVISFQLMLCVLDYFIKLSPPMLLKEPYKTAVIPINGSPRTPRRGQNRSARIAKQLENDTRIIEVLCKEHECNIDEVKNVYFKNFIPFMNSLGLVTSNGLPEVENLSKRYEEIYLKNKDLDARLFLDHDKTLQTDSIDSFETQRTPRKSNLDEEVNVIPPHTPVRTVMNTIQQLMMILNSASDQPSENLISYFNNCTVNPKESILKRVKDIGYIFKEKFAKAVGQGCVEIGSQRYKLGVRLYYRVMESMLKSEEERLSIQNFSKLLNDNIFHMSLLACALEVVMATYSRSTSQNLDSGTDLSFPWILNVLNLKAFDFYKVIESFIKAEGNLTREMIKHLERCEHRIMESLAWLSDSPLFDLIKQSKDREGPTDHLESACPLNLPLQNNHTAADMYLSPVRSPKKKGSTTRVNSTANAETQATSAFQTQKPLKSTSLSLFYKKVYRLAYLRLNTLCERLLSEHPELEHIIWTLFQHTLQNEYELMRDRHLDQIMMCSMYGICKVKNIDLKFKIIVTAYKDLPHAVQETFKRVLIKEEEYDSIIVFYNSVFMQRLKTNILQYASTRPPTLSPIPHIPRSPYKFPSSPLRIPGGNIYISPLKSPYKISEGLPTPTKMTPRSRILVSIGESFGTSEKFQKINQMVCNSDRVLKRSAEGSNPPKPLKKLRFDIEGSDEADGSKHLPGESKFQQKLAEMTSTRTRMQKQKMNDSMDTSNKEEK
B2: HIST1H1T (protein, UniProt P22492 1-207)
chain: MSETVPAASASAGVAAMEKLPTKKRGRKPAGLISASRKVPNLSVSKLITEALSVSQERVGMSLVALKKALAAAGYDVEKNNSRIKLSLKSLVNKGILVQTRGTGASGSFKLSKKVIPKSTRSKAKKSVSAKTKKLVLSRDSKSPKTAKTNKRAKKPRATTPKTVRSGRKAKGAKGKQQQKSPVKARASKSKLTQHHEVNVRKATSKK
B3: ACIN1 (protein, UniProt Q9UKV3 1-1341)
chain: MWRRKHPRTSGGTRGVLSGNRGVEYGSGRGHLGTFEGRWRKLPKMPEAVGTDPSTSRKMAELEEVTLDGKPLQALRVTDLKAALEQRGLAKSGQKSALVKRLKGALMLENLQKHSTPHAAFQPNSQIGEEMSQNSFIKQYLEKQQELLRQRLEREAREAAELEEASAESEDEMIHPEGVASLLPPDFQSSLERPELELSRHSPRKSSSISEEKGDSDDEKPRKGERRSSRVRQARAAKLSEGSQPAEEEEDQETPSRNLRVRADRNLKTEEEEEEEEEEEEDDEEEEGDDEGQKSREAPILKEFKEEGEEIPRVKPEEMMDERPKTRSQEQEVLERGGRFTRSQEEARKSHLARQQQEKEMKTTSPLEEEEREIKSSQGLKEKSKSPSPPRLTEDRKKASLVALPEQTASEEETPPPLLTKEASSPPPHPQLHSEEEIEPMEGPAPAVLIQLSPPNTDADTRELLVSQHTVQLVGGLSPLSSPSDTKAESPAEKVPEESVLPLVQKSTLADYSAQKDLEPESDRSAQPLPLKIEELALAKGITEECLKQPSLEQKEGRRASHTLLPSHRLKQSADSSSSRSSSSSSSSSRSRSRSPDSSGSRSHSPLRSKQRDVAQARTHANPRGRPKMGSRSTSESRSRSRSRSRSASSNSRKSLSPGVSRDSSTSYTETKDPSSGQEVATPPVPQLQVCEPKERTSTSSSSVQARRLSQPESAEKHVTQRLQPERGSPKKCEAEEAEPPAATQPQTSETQTSHLPESERIHHTVEEKEEVTMDTSENRPENDVPEPPMPIADQVSNDDRPEGSVEDEEKKESSLPKSFKRKISVVSATKGVPAGNSDTEGGQPGRKRRWGASTATTQKKPSISITTESLKSLIPDIKPLAGQEAVVDLHADDSRISEDETERNGDDGTHDKGLKICRTVTQVVPAEGQENGQREEEEEEKEPEAEPPVPPQVSVEVALPPPAEHEVKKVTLGDTLTRRSISQQKSGVSITIDDPVRTAQVPSPPRGKISNIVHISNLVRPFTLGQLKELLGRTGTLVEEAFWIDKIKSHCFVTYSTVEEAVATRTALHGVKWPQSNPKFLCADYAEQDELDYHRGLLVDRPSETKTEEQGIPRPLHPPPPPPVQPPQHPRAEQREQERAVREQWAEREREMERRERTRSEREWDRDKVREGPRSRSRSRDRRRKERAKSKEKKSEKKEKAQEEPPAKLLDDLFRKTKAAPCIYWLPLTDSQIVQKEAERAERAKEREKRRKEQEEEEQKEREKEAERERNRQLEREKRREHSRERDRERERERERDRGDRDRDRERDRERGRERDRRDTKRHSRSRSRSTPVRDRGGRR
B4: SMC1A (protein, UniProt Q14683 1-1233)
chain: MGFLKLIEIENFKSYKGRQIIGPFQRFTAIIGPNGSGKSNLMDAISFVLGEKTSNLRVKTLRDLIHGAPVGKPAANRAFVSMVYSEEGAEDRTFARVIVGGSSEYKINNKVVQLHEYSEELEKLGILIKARNFLVFQGAVESIAMKNPKERTALFEEISRSGELAQEYDKRKKEMVKAEEDTQFNYHRKKNIAAERKEAKQEKEEADRYQRLKDEVVRAQVQLQLFKLYHNEVEIEKLNKELASKNKEIEKDKKRMDKVEDELKEKKKELGKMMREQQQIEKEIKEKDSELNQKRPQYIKAKENTSHKIKKLEAAKKSLQNAQKHYKKRKGDMDELEKEMLSVEKARQEFEERMEEESQSQGRDLTLEENQVKKYHRLKEEASKRAATLAQELEKFNRDQKADQDRLDLEERKKVETEAKIKQKLREIEENQKRIEKLEEYITTSKQSLEEQKKLEGELTEEVEMAKRRIDEINKELNQVMEQLGDARIDRQESSRQQRKAEIMESIKRLYPGSVYGRLIDLCQPTQKKYQIAVTKVLGKNMDAIIVDSEKTGRDCIQYIKEQRGEPETFLPLDYLEVKPTDEKLRELKGAKLVIDVIRYEPPHIKKALQYACGNALVCDNVEDARRIAFGGHQRHKTVALDGTLFQKSGVISGGASDLKAKARRWDEKAVDKLKEKKERLTEELKEQMKAKRKEAELRQVQSQAHGLQMRLKYSQSDLEQTKTRHLALNLQEKSKLESELANFGPRINDIKRIIQSREREMKDLKEKMNQVEDEVFEEFCREIGVRNIREFEEEKVKRQNEIAKKRLEFENQKTRLGIQLDFEKNQLKEDQDKVHMWEQTVKKDENEIEKLKKEEQRHMKIIDETMAQLQDLKNQHLAKKSEVNDKNHEMEEIRKKLGGANKEMTHLQKEVTAIETKLEQKRSDRHNLLQACKMQDIKLPLSKGTMDDISQEEGSSQGEDSVSGSQRISSIYAREALIEIDYGDLCEDLKDAQAEEEIKQEMNTLQQKLNEQQSVLQRIAAPNMKAMEKLESVRDKFQETSDEFEAARKRAKKAKQAFEQIKKERFDRFNACFESVATNIDEIYKALSRNSSAQAFLGPENPEEPYLDGINYNCVAPGKRFRPMDNLSGGEKTVAALALLFAIHSYKPAPFFVLDEIDAALDNTNIGKVANYIKEQSTCNFQAIVISLKEEFYTKAESLIGVYPEQGDCVISKVLTFDLTKYPDANPNPNEQ
B5: C14ORF43 (protein, UniProt Q6PJG2 1-1045)
chain: MNLQAQPKAQNKRKRCLFGGQEPAPKEQPPPLQPPQQSIRVKEEQYLGHEGPGGAVSTSQPVELPPPSSLALLNSVVYGPERTSAAMLSQQVASVKWPNSVMAPGRGPERGGGGGVSDSSWQQQPGQPPPHSTWNCHSLSLYSATKGSPHPGVGVPTYYNHPEALKREKAGGPQLDRYVRPMMPQKVQLEVGRPQAPLNSFHAAKKPPNQSLPLQPFQLAFGHQVNRQVFRQGPPPPNPVAAFPPQKQQQQQQPQQQQQQQQAALPQMPLFENFYSMPQQPSQQPQDFGLQPAGPLGQSHLAHHSMAPYPFPPNPDMNPELRKALLQDSAPQPALPQVQIPFPRRSRRLSKEGILPPSALDGAGTQPGQEATGNLFLHHWPLQQPPPGSLGQPHPEALGFPLELRESQLLPDGERLAPNGREREAPAMGSEEGMRAVSTGDCGQVLRGGVIQSTRRRRRASQEANLLTLAQKAVELASLQNAKDGSGSEEKRKSVLASTTKCGVEFSEPSLATKRAREDSGMVPLIIPVSVPVRTVDPTEAAQAGGLDEDGKGPEQNPAEHKPSVIVTRRRSTRIPGTDAQAQAEDMNVKLEGEPSVRKPKQRPRPEPLIIPTKAGTFIAPPVYSNITPYQSHLRSPVRLADHPSERSFELPPYTPPPILSPVREGSGLYFNAIISTSTIPAPPPITPKSAHRTLLRTNSAEVTPPVLSVMGEATPVSIEPRINVGSRFQAEIPLMRDRALAAADPHKADLVWQPWEDLESSREKQRQVEDLLTAACSSIFPGAGTNQELALHCLHESRGDILETLNKLLLKKPLRPHNHPLATYHYTGSDQWKMAERKLFNKGIAIYKKDFFLVQKLIQTKTVAQCVEFYYTYKKQVKIGRNGTLTFGDVDTSDEKSAQEEVEVDIKTSQKFPRVPLPRRESPSEERLEPKREVKEPRKEGEEEVPEIQEKEEQEEGRERSRRAAAVKATQTLQANESASDILILRSHESNAPGSAGGQASEKPREGTGKSRRALPFSEKKKKTETFSKTQNQENTFPCKKCGR
B6: TOX4 (protein, UniProt O94842 1-621)
chain: MEFPGGNDNYLTITGPSHPFLSGAETFHTPSLGDEEFEIPPISLDSDPSLAVSDVVGHFDDLADPSSSQDGSFSAQYGVQTLDMPVGMTHGLMEQGGGLLSGGLTMDLDHSIGTQYSANPPVTIDVPMTDMTSGLMGHSQLTTIDQSELSSQLGLSLGGGTILPPAQSPEDRLSTTPSPTSSLHEDGVEDFRRQLPSQKTVVVEAGKKQKAPKKRKKKDPNEPQKPVSAYALFFRDTQAAIKGQNPNATFGEVSKIVASMWDSLGEEQKQVYKRKTEAAKKEYLKALAAYKDNQECQATVETVELDPAPPSQTPSPPPMATVDPASPAPASIEPPALSPSIVVNSTLSSYVANQASSGAGGQPNITKLIITKQMLPSSITMSQGGMVTVIPATVVTSRGLQLGQTSTATIQPSQQAQIVTRSVLQAAAAAAAAASMQLPPPRLQPPPLQQMPQPPTQQQVTILQQPPPLQAMQQPPPQKVRINLQQQPPPLQIKSVPLPTLKMQTTLVPPTVESSPERPMNNSPEAHTVEAPSPETICEMITDVVPEVESPSQMDVELVSGSPVALSPQPRCVRSGCENPPIVSKDWDNEYCSNECVVKHCRDVFLAWVASRNSNTVVFVK
B7: MBD3L2 (protein, UniProt Q8NHZ7 1-208)
chain: MGEPAFTSFPSLPVLGKLKRNMMPWALQKKREIHMAKAHRRRAARSALPMRLTSCIFRRPVTRIRSHPDNQVRRRKGDEHLEKPQQLCAYRRLQALQPCSSQGEGSSPLHLESVLSILAPGTAGESLDRAGAERVRSPLEPTPGRFPAVAGGPTPGMGCQLPPPLSGQLVTPADIRRQARRVKKARERLAKALQADRLARRAEMLTGG
B8: TSPYL1 (protein, UniProt Q9H0U9 1-437)
chain: MSGLDGVKRTTPLQTHSIIISDQVPSDQDAHQYLRLRDQSEATQVMAEPGEGGSETVALPPPPPSEEGGVPQDAAGRGGTPQIRVVGGRGHVAIKAGQEEGQPPAEGLAAASVVMAADRSLKKGVQGGEKALEICGAQRSASELTAGAEAEAEEVKTGKCATVSAAVAERESAEVVKEGLAEKEVMEEQMEVEEQPPEGEEIEVAEEDRLEEEAREEEGPWPLHEALRMDPLEAIQLELDTVNAQADRAFQQLEHKFGRMRRHYLERRNYIIQNIPGFWMTAFRNHPQLSAMIRGQDAEMLRYITNLEVKELRHPRTGCKFKFFFRRNPYFRNKLIVKEYEVRSSGRVVSLSTPIIWRRGHEPQSFIRRNQDLICSFFTWFSDHSLPESDKIAEIIKEDLWPNPLQYYLLREGVRRARRRPLREPVEIPRPFGFQSG

Target: FLAG-V5-tagged U2-B” (FV5-U2-B”) (UniProt P08579)
Experiment: affinity purification with mass spectrometry; in vitro splicing reaction of NEB” nuclear extract with AdML pre-mRNA and ATPγS, Sephacryl-S500 gel filtration, pooled spliceosome fractions on anti-FLAG M2 Affinity Gel, mass spectrometry; two independent experiments

Row | Binder | binding
1 | B1 | binds
2 | B2 | binds
3 | B3 | binds
4 | B4 | binds
5 | B5 | binds
6 | B6 | binds
7 | B7 | binds
8 | B8 | binds
